Results as given in patent US10913757B2, “Hydroxycinnamic derivatives, methods and uses thereof” (UNIVERSIDADE DO PORTO, priority 2016, dated 2021).
Some of these results come from one statement about several compounds together. At least one structure is not confirmed: it was looked up by name or label, or the drawing left a doubt.

Experiment: Redox properties by differential pulse and cyclic voltammetry
Assay type: physicochemical
Conditions: physiological pH (7.4)
Procedure: In an embodiment, and as an example, AntiOxCINs redox properties were evaluated (Table 1). Redox potentials are correlated with the ability of an antioxidant to donate a hydrogen atom and/or an electron to a free radical.
However, for pyrogallol derivatives (AntiOxCIN4, AntiOxCIN5 and AntiOxCIN7), a significant decrease in redox potentials was observed (Ep=0.034-0.057 V) (Table 1).
The voltammograms presented a diffusion peak and an adsorption post-peak at a more anodic potential correspondent to the oxidation of dissolved and adsorbed forms of the compounds, respectively. The oxidation waves can be related to the oxidation process of the pyrogallol moiety. The cyclic voltammograms also show the presence of two overlapped anodic peaks. The anodic peaks appeared to correspond to irreversible processes as any distinct reduction wave was not seen on the cathodic sweep. The existence of the additional phenolic group in the pyrogallol systems, when compared with the catechol ones, seems to influence the stabilization of the semiquinone intermediate and in turn the oxidative mechanism.
In an embodiment, the electrochemical analytical data was obtained using a computer controlled potentiostat Autolab PGSTAT302N (Metrohm Autolab, Utrecht, Netherlands). Generally, cyclic voltammetry (CV) data was acquired at a scan rate of 50 mVs^−1. Differential pulse voltammetry (DPV) results were acquired at a step potential of 4 mV, pulse amplitude of 50 mV and scan rate of 8 mVs^−1. The electrochemical signals were monitored by the General Purpose Electrochemical System (GPES) version 4.9, software package. All electrochemical experiments were performed at room temperature in an electrochemical cell that was placed in a Faraday cage in order to minimize the contribution of background noise to the analytical signal.
In an embodiment, the process of evaluation of AntiOxCINs redox properties was conducted as follows: stock solutions of each compound (10 mM) were prepared by dissolving the appropriate amount in ethanol. The voltammetric working solutions were prepared in the electrochemical cell, at a final concentration of 0.1 mM. The […] supporting electrolyte was prepared by diluting […] to 100 mL. Voltammetric data was acquired in a three-electrode system consisting of a glassy carbon electrode (GCE, d=2 mm) as working electrode, a counter electrode of platinum wire and a saturated Ag/AgCl reference electrode. In an embodiment, the evaluation of AntiOxCINs lipophilic properties was performed as follows: the electrochemical cell was a four-electrode system with arrays of micro liquid-liquid interfaces (μlTIES) containing two Ag/AgCl reference electrodes and two counter electrodes of Pt, one in each phase. The microporous membrane was sealed with a fluorosilicone sealant (Dow Corning 730) onto a glass cylinder which was filled with 4.0 mL of the aqueous phase, where the aliquots of AntiOxCINs solutions were added. The membrane was then immersed into the organic phase contained in the cell. The organic phase reference solution (a 2 mM BTPPACI+2 mM NaCl aqueous solution) was mechanically stabilized The aqueous supporting electrolyte solution was a Tris-HCl buffer 10 mM pH 7.0.

SMILES	Ep (redox potential) (methanesulfonate)	Ep (redox potential)
CS(=O)(=O)[O-].O=C(/C=C/c1ccc(O)c(O)c1)NCCCCCC[P+](c1ccccc1)(c1ccccc1)c1ccccc1 [AntiOxCIN2, (E)-(6-(3-(3,4-dihydroxyphenyl)prop-2-enamido)hexyl)triphenylphosphonium methanesulfonate]	0.164-0.174 V	
CS(=O)(=O)[O-].O=C(/C=C/c1ccc(O)c(O)c1)NCCCCCCCC[P+](c1ccccc1)(c1ccccc1)c1ccccc1 [AntiOxCIN3, (E)-(8-(3-(3,4-dihydroxyphenyl)acrylamido)octyl)triphenylphosphoniummethanesulfonate]		0.164-0.174 V
CS(=O)(=O)[O-].O=C(/C=C/c1cc(O)c(O)c(O)c1)NCCCCCC[P+](c1ccccc1)(c1ccccc1)c1ccccc1 [AntiOxCIN4, (E)-(6-(3-(3,4,5-trihydroxyphenyl)prop-2-enamido)hexyl)triphenylphosphonium methanesulfonate]	0.034-0.057 V	
CS(=O)(=O)[O-].O=C(/C=C/c1ccc(O)c(O)c1)NCCCCCCCCCC[P+](c1ccccc1)(c1ccccc1)c1ccccc1 [AntiOxCIN6, (E)-(10-(3-(3,4-dihydroxyphenyl)acrylamido)decyl)triphenylphosphonium methanesulfonate]	0.164-0.174 V	
CS(=O)(=O)[O-].O=C(/C=C/c1cc(O)c(O)c(O)c1)NCCCCCCCCCC[P+](c1ccccc1)(c1ccccc1)c1ccccc1 [AntiOxCIN7, (E)-(10-(3-(3,4,5-trihydroxyphenyl)acrylamido)decyl)triphenylphosphonium methanesulfonate]	0.034-0.057 V	
